Values joined by “and” are separate entries in the source; they are usually repeats but may differ in a detail not shown here. Identical values can stand only once. About 6,200 (1.8%) of roughly 340,000 compounds were called active. The shares of active, inactive and inconclusive entries below differ from those in the screen. The call rests on the fitted dose curve; in most records, active means well fitted activation curve with a large enough effect; inconclusive means small, poorly fitted or top-dose-only effect; inactive means no such curve, though single readings can be large or run the other way. Potencies beside an inconclusive call are fits to weak or partial responses and may not hold up.
Assay: A quantitative high throughput screen for small molecules that induce DNA re-replication in SW480 colon adenocarcinoma cells. Further: nearly all actives have a fitted effect of over 55% in size. On re-replication activation: % of control where 0% means no effect.
Details: Hoechst DNA content imaging, 48 h; re-replication activation: at 46.1 µM (top of the series) unless noted
In short: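 Readout is total intensity of Hoechst-stained nuclei, excited at 405 nm and collected at 500-530 nm. Compound treatment lasted 48 hr at 37 C in 5% CO2 before staining.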
Potency means the concentration at half of the fitted maximal effect.

Structure (SMILES)	Potency	re-replication activation
Cc1c(C)n(Cc2ccc(Cl)cc2)c2ccc(C(=O)NCCCN3CCOCC3)cc12	active: 20.6 µM	
O=C(CN1CCOCC1)NNc1c2ccccc2nc2ccccc12		inactive: 11.9%
Cc1ccc(S(=O)(=O)N2CCCCC2)cc1NC(=O)Nc1ccc(Cl)cc1Cl		inactive: -4.14%
COCCOC(=O)c1[nH]c2c(c1C)C(=O)CC(c1ccc(F)cc1)C2 (stereo not drawn)	inconclusive: 20.6 µM [activator, single point]	
Cc1cc2cc(CN(Cc3ccc4c(c3)OCO4)Cc3nnnn3C3CCCC3)c(=O)[nH]c2cc1C		inactive: -2.02%
O=C(Nc1ccc([N+](=O)[O-])cc1)c1nc[nH]c1C(=O)NC1CCCCC1		inactive: 1.17%
O=C(NC1CCCCCC1)c1ccc(Cl)c(S(=O)(=O)N2CCOCC2)c1	inconclusive: 6.31 µM [activator, single point]	
CCC(=O)c1ccc2c(c1)N(CCCN(C)C)c1ccccc1S2	inconclusive: 33.5 µM [activator, single point] and inconclusive: 25.1 µM [activator, single point]	
c1ccc(CNc2nc(-c3ccccc3)nc3ccccc23)cc1		inactive: 1.1%
COCCCNC(=S)NNC(=O)c1ccccn1	inconclusive: 20.6 µM [activator, single point]	
COc1ccc(CN2CCCC(C(=O)Nc3cccc(-n4cccn4)c3)C2)c(F)c1 (stereo not drawn)	inconclusive: 29.1 µM [activator, single point]	
O=C(N/N=C\c1ccc(Cl)s1)C1COc2ccccc2O1 (stereo not drawn)	active: 16.4 µM	
O=C(COc1ccc(S(=O)(=O)N2CCCC2)cc1)Nc1ccc2c(c1)OCCO2	inconclusive: 29.1 µM [activator, single point]	
O=C(Nc1ccc(-c2nc3cccnc3s2)cc1)c1ccc(Cl)nc1	inconclusive: 6.51 µM [activator, single point]	
Cc1ccc(NC(=O)CSc2ncnc3ccccc23)cc1S(=O)(=O)N1CCCCC1		inactive: 0.0697%
COc1ccc(Nc2ncccc2C(=O)Nc2ccccc2)cc1	inconclusive: 16.4 µM [activator, single point]	
COc1ccc(CC(=O)N(Cc2ccccc2)c2cccc(C)c2)cc1OC		inactive: -6.36%
NCCC(=O)N1c2ccccc2Sc2ccc(Cl)cc21	inconclusive: 18.4 µM [activator, single point]	
Cc1cc(C)nc(SCC(=O)Nc2ncc(Cc3ccc(Cl)c(Cl)c3)s2)n1	inconclusive: 32.6 µM [activator, partial curve, poor fit]	
O=C(CN(Cc1ccccc1)C(=O)CCl)c1cccc(Br)c1	inconclusive: 2.31 µM [activator, full curve]	
CCC1=Nc2cc(C(=O)O)ccc2Sc2ccccc21		inactive: -2.9%
O=C(CSc1nc(-c2ccccc2)c(-c2ccccc2)[nH]1)Nc1ccc2c(c1)OCO2	inconclusive: 32.6 µM [activator, partial curve, poor fit]	
CCOC(=O)C1(CCOc2ccccc2)CCN(Cc2cc(OC)c3c(c2)OCO3)CC1	inconclusive: 25.9 µM [activator, single point]	

Structure (SMILES)	Potency	re-replication activation
CC(=O)Nc1ccc(S(=O)(=O)N(C)CC(=O)OCC(=O)c2ccc3c(c2)NC(=O)CO3)cc1		inactive: -2.4%
COc1ccc(N(C(=O)Cn2nnc3ccccc32)C(C(=O)NC(C)(C)C)c2ccc(OC)c(O)c2)cc1 (stereo not drawn)	inconclusive: 0.82 µM [activator, full curve, poor fit]	
c1ccc(C(c2nnnn2Cc2ccco2)N2CCN(c3nc4ccccc4s3)CC2)cc1 (stereo not drawn)		inactive: -3.82%
Cc1cccc(C(C(=O)NC2CCCC2)N(C(=O)c2csnn2)C2CCCC2)c1 (stereo not drawn)		inactive: -2.28%
CCN(CC)c1ccc(NC(=O)c2cnccn2)cc1S(=O)(=O)Nc1ccc(OC)cc1	inconclusive: 25.9 µM [activator, single point]	
O=C(CSc1nc2ccccc2c(=O)n1CCCN1CCOCC1)c1c[nH]c2ccccc12	inconclusive: 23.1 µM [activator, single point]	
Cc1oc2c(c1C(=O)N1CCOCC1)C(=O)c1ccccc1C2=O	inconclusive: 2.31 µM [activator, full curve]	
Cc1c(N/N=C(\C#N)C(=O)c2ccccc2)c(=O)n(-c2ccccc2)n1C	inconclusive: 4.61 µM [activator, single point]	
Cc1cccc(C(=O)NC(=S)Nc2ccc(S(=O)(=O)N(C)c3ccccc3)cc2)c1		inactive: 1.72%
COCCCNC(=O)c1cn(CC(C)C)c(=O)c2c1c1ccccc1n2C	inconclusive: 0.517 µM [activator, full curve, poor fit]	
Cc1cc(=O)oc2c(C)c(OCC(=O)NC3CC(C)(C)NC(C)(C)C3)ccc12	inconclusive: 31.6 µM [activator, single point]	
C=CCn1c(SCC(=O)Nc2nncs2)nnc1-c1ccco1		inactive: -10%
N#C/C(=C\c1ccccc1OCc1ccc(C(=O)O)cc1)C(=O)Nc1ccc(O)cc1		inactive: 2.55%
C=CCSc1nnc(NC(=O)CSc2nc3ccccc3[nH]2)s1	inconclusive: 13 µM [activator, partial curve]	
O=C1C=C(NCc2ccc(Cl)cc2Cl)C2(CCCCC2)O1	inconclusive: 16.4 µM [activator, partial curve, poor fit]	
CCCCNC(=O)c1ccc(Cn2c(=S)[nH]c3c([nH]c4ccc(OC)cc43)c2=O)cc1	inconclusive: 29.1 µM [activator, partial curve, poor fit]	
O=C(N/N=C/C=C\c1ccccc1[N+](=O)[O-])c1ccncc1		inactive: 2.67%
COc1ccc(-c2csc(NC(=O)Cc3ccccc3F)n2)c(OC)c1	inconclusive: 29.1 µM [activator, single point]	
CCC(C(=O)N1CCCC1)n1nc(C)c2c(C)n(-c3ccccc3)nc2c1=O (stereo not drawn)	active: 20.6 µM	
O=C(Nc1sc2c(c1C(=O)NCCO)CCCC2)c1ccco1	inconclusive: 14.6 µM [activator, single point]	
Brc1ccc(Cn2c(-c3ccc(Br)o3)nc3ccccc32)o1	inconclusive: 29.1 µM [activator, single point]	
COc1ccc(CCC(C)NCCc2ccc(Cl)cc2Cl)cc1 (stereo not drawn)	inconclusive: 29.1 µM [activator, single point]	
CC1CC2=C(NC(=S)NC2c2ccc(F)cc2)/C(=C/c2ccc(F)cc2)C1 (stereo not drawn)	inconclusive: 3.66 µM [activator, full curve]	

Structure (SMILES)	Potency	re-replication activation
Cc1ccc(-n2c3nc(=O)[nH]c(=O)c-3cc3cc([N+](=O)[O-])ccc32)cc1	inconclusive: 18.4 µM [activator, single point]	
COc1ccc(CNC(=O)NC(C)(C)c2cccc(C(C)(C)NC(=O)NCc3ccc(OC)cc3)c2)cc1	inconclusive: 1.84 µM [activator, partial curve, poor fit]	
CC(C)C(=O)Nc1ccc(C(=O)Nc2ccc(S(=O)(=O)N3CCOCC3)cc2)cc1	inconclusive: 0.82 µM [activator, full curve, poor fit]	
CCOC(=O)c1ccccc1NS(=O)(=O)c1ccc(OC)cc1	inconclusive: 18.4 µM [activator, single point]	
O=C(CCNC(=O)c1ccc(Br)cc1)NNC(=O)c1ccccc1O	inconclusive: 18.4 µM [activator, single point]	
COc1ccc(CN2CCNC(=O)C2CC(=O)N(C)Cc2nccn2C)cc1OC (stereo not drawn)	inconclusive: 0.708 µM [activator, full curve, poor fit]	
COc1ccc(C(=O)/C(C#N)=N/Nc2cccc([N+](=O)[O-])c2)cc1	inconclusive: 3.66 µM [activator, partial curve, poor fit]	
O=C(c1ccc(NS(=O)(=O)c2cccc([N+](=O)[O-])c2)cc1)N1CCCCCC1		inactive: -6.46%
COc1ccc2nc(NC(=O)C3CCN(S(=O)(=O)c4cccnc4)CC3)sc2c1		inactive: 18.9%
O=[N+]([O-])c1cccnc1N1CCC(c2cc(-c3ccc(Cl)cc3Cl)n[nH]2)CC1	inconclusive: 0.0046 µM [activator, full curve, poor fit]	
COCCOC(=O)c1c(NC(=O)CN2c3ccccc3CC2C)sc(C(N)=O)c1C (stereo not drawn)		inactive: 1.57%
CN(C)CCN(C(=O)c1ccccc1Cl)c1nc2c(Cl)cccc2s1	inconclusive: 29.1 µM [activator, single point]	
Nc1cc(Cl)nc(N/N=C/c2c(O)ccc3ccccc23)n1	inconclusive: 3.66 µM [activator, full curve, poor fit]	
c1ccc(CCNc2nc(-c3ccccn3)nc3ccccc23)cc1	inconclusive: 6.51 µM [activator, single point]	
COC(=O)C1=C(C)N(Cc2ccc3c(c2)OCO3)C(=O)C1	inconclusive: 6.51 µM [activator, single point]	
NC(=O)NC(CC(=O)N1CCc2ccccc2C1)c1ccc(Cl)cc1 (stereo not drawn)		inactive: 2.39%
O=C(/C=C/c1ccccc1[N+](=O)[O-])NNC(=O)c1ccncc1	inconclusive: 6.51 µM [activator, single point]	
Cc1cc2oc(=O)cc(-c3ccccc3)c2c(C)c1-c1ccc(F)c(Cl)c1		inactive: 1.33%
COc1cc2cnc(-c3ccccc3)c(C(=O)c3ccc(OCc4ccccc4)cc3)c2cc1OC		inactive: 17.4%
Cc1onc(-c2ccccc2Cl)c1C(=O)Nc1ccc(CN2CCCC2)cc1		inactive: 1.01%
CC1=NN(C(=O)CCc2ccccc2)C(O)(c2ccncc2)C1 (stereo not drawn)	inconclusive: 29.1 µM [activator, single point]	
Cc1cccc(N2CCN(C(=O)c3ccc4nc(-c5ccco5)c(-c5ccco5)nc4c3)CC2C)c1 (stereo not drawn)	inconclusive: 20.6 µM [activator, single point]	
